Results taken from patent US20060149521A1 (University of California, published 2006).
No constants are given. Whether binding was seen depends on the method and setting. Some entries that bind do so weakly or less than the wild type. Sequences can lack the tags named with a protein.

T1: hTRβ ligand binding domain (hTRβ LBD), in vitro translated, as used in the GST-GRIP1 binding and peptide competition assays (human) (UniProt P10828)
T1 sequence ([35S]-methionine labelled (in vitro translated), looked up): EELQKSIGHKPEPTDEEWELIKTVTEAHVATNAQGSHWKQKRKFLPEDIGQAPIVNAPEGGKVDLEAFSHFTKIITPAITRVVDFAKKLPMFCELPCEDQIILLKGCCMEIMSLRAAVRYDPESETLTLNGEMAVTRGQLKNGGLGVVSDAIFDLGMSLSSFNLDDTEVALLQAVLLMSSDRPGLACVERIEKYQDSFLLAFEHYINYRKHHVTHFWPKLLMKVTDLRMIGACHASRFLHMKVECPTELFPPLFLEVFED


Each binder was assayed against T1, hTRβ ligand binding domain (hTRβ LBD), in vitro translated, as used in the GST-GRIP1 binding and peptide competition assays (human) (assay: peptide competition of hTRβ LBD binding to GST-GRIP1 (563-767)).

Q: How did the binding turn out when EKHKILHRLLQDS (also called original NR-box 2 peptide) [GRIP1 NR-box 2 peptide EKHKILHRLLQDS] was run?
A: The binding was “binds”.

Q: How did the binding turn out when TSLKEKHKILHRLLQDS [extended NR-box 2 peptide …] was run?
A: Its binding is “binds”.

Q: For KENALLRYLLDKDDTKD, which binding is on record?
A: Its binding is “binds”.

Q: With PKKKENALLRYLLDKDDTKD as the binder, how does the binding read?
A: The binding was “binds”.

Q: For TSLKEKHKLLRYLLQDSS [chimeric peptide containing the NR-box 3 motif in the context of the NR-box 2 flanking sequences, …], which binding is on record?
A: Its binding is “binds”.

Each binder was assayed against T1, hTRβ ligand binding domain (hTRβ LBD), in vitro translated, as used in the GST-GRIP1 binding and peptide competition assays (human) (assay: peptide competition of TR binding to GST-GRIP1 (563-767) or its NR-box 3 mutant).

Q: With EKHKILHRLLQDS (also called original NR-box 2 peptide) [GRIP1 NR-box 2 peptide EKHKILHRLLQDS] as the binder, how does the binding read?
A: The binding was “binds”.

Q: ENALLRYLLDKDD [GRIP1 NR-box 3 peptide ENALLRYLLDKDD] was tested. Which binding did it give?
A: The binding was “binds”.
